PubChem BioAssay AID1224827 – NIAID – 2016
Assay: 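Confirm genes whose knock-down changes LPS-driven TNF promoter activity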 (follow-up of hits). Cell system: RAW264.7 G9 mouse macrophage reporter clone. Reagent: single siRNA against mouse genes, 100 nM siRNA. Time to read-out: siRNA for 2 days, then LPS about 16 h. Challenge: bacterial lipopolysaccharide (LPS), 10 ng/ml, cells fixed after overnight (about 16 h) stimulation. Measured: 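TNF promoter reporter red fluorescence in nuclei, background subtracted, normalised per plate and to non-targeting control siRNA, as z-scores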. Reading the numbers: TNF reporter z-score, mean and TNF reporter z-score: higher = stronger Tnf promoter reporter signal; gene median z, three same-vendor siRNAs: higher = stronger Tnf reporter signal for the gene. Call rule: 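An siRNA is called active when its mean z-score over replicates is at least +2 or at most -2; control wells get no call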.
The deposit covers about 3,800 reagents; shown is a part drawn at random. About 2,200 of all reagents (57%) were called active. 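Active means a strong reporter change in either direction; calls are per siRNA, not per gene; qiagen siRNAs gave weaker effects.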 Reagents against one gene are numbered here. Reagent sequences are not shown.

target gene | reagent | TNF reporter z-score, mean | gene median z, three same-vendor siRNAs | TNF reporter z-score, repeat 1 | TNF reporter z-score, repeat 2 | outcome
Lrrc10 (leucine rich repeat containing 10) | 1 | 4.62 | 3.41 | 4.19 | 5.05 | active
Lrrc10 (leucine rich repeat containing 10) | 2 | 3.47 | 3.41 | 2.63 | 4.31 | active
Lrrc10 (leucine rich repeat containing 10) | 3 | -1.82 | 3.41 | -2.01 | -1.64 | inactive
Lrrc10 (leucine rich repeat containing 10) | 4 | 1.59 | -1.13 | 3.56 | -0.39 | inactive
Lrrc10 (leucine rich repeat containing 10) | 5 | -1.62 | -1.13 | -1.87 | -1.37 | inactive
Lrrc10 (leucine rich repeat containing 10) | 6 | -1.62 | -1.13 | -0.892 | -2.35 | inactive
Gsta3 (glutathione S-transferase, alpha 3) | 1 | -2.96 | -3.13 | -2.53 | -3.4 | active
Gsta3 (glutathione S-transferase, alpha 3) | 2 | -3.06 | -3.13 | -3.62 | -2.5 | active
Gsta3 (glutathione S-transferase, alpha 3) | 3 | -3.51 | -3.13 | -4.15 | -2.87 | active
Gsta3 (glutathione S-transferase, alpha 3) | 4 | 3.24 | 1.11 | 5.84 | 0.629 | active
Gsta3 (glutathione S-transferase, alpha 3) | 5 | 0.328 | 1.11 | 1.6 | -0.939 | inactive
Gsta3 (glutathione S-transferase, alpha 3) | 6 | 0.368 | 1.11 | 1.99 | -1.25 | inactive
Nr1d1 (nuclear receptor subfamily 1, group D, member 1) | 1 | -1.46 | -3.48 | -2.19 | -0.737 | inactive
Nr1d1 (nuclear receptor subfamily 1, group D, member 1) | 2 | -3.48 | -3.48 | -3.94 | -3.01 | active
Nr1d1 (nuclear receptor subfamily 1, group D, member 1) | 3 | -4.36 | -3.48 | -4.14 | -4.58 | active
Nr1d1 (nuclear receptor subfamily 1, group D, member 1) | 4 | -2.36 | -2.77 | -2.58 | -2.14 | active
Nr1d1 (nuclear receptor subfamily 1, group D, member 1) | 5 | -2.06 | -2.77 | -1.17 | -2.95 | active
Nr1d1 (nuclear receptor subfamily 1, group D, member 1) | 6 | -3.13 | -2.77 | -2.98 | -3.28 | active

Looked up above:
Lrrc10 (leucine rich repeat containing 10) #5, outcome = inactive
Gsta3 (glutathione S-transferase, alpha 3) #4, TNF reporter z-score, repeat 1 = 5.84
Gsta3 (glutathione S-transferase, alpha 3) #5, TNF reporter z-score, mean: 0.328
Under “gene median z, three same-vendor siRNAs”, Gsta3 (glutathione S-transferase, alpha 3) #6 is entered as 1.11

The results go on.
target gene | reagent | TNF reporter z-score, mean | gene median z, three same-vendor siRNAs | TNF reporter z-score, repeat 1 | TNF reporter z-score, repeat 2 | outcome
Ucp2 | 1 | 1.62 | -2.01 | 0.8 | 2.44 | inactive
Ucp2 | 2 | -2.01 | -2.01 | -2.42 | -1.61 | active
Ucp2 | 3 | -2.71 | -2.01 | -2.52 | -2.9 | active
Ucp2 | 4 | 3.85 | 1.19 | 6.72 | 0.982 | active
Ucp2 | 5 | 1.89 | 1.19 | 4.06 | -0.288 | inactive
Ucp2 | 6 | 0.419 | 1.19 | 1.39 | -0.551 | inactive
Rps4x (ribosomal protein S4, X-linked) | 1 | 6.25 | 3.63 | 6.02 | 6.48 | active
Rps4x (ribosomal protein S4, X-linked) | 2 | 3.63 | 3.63 | 3.83 | 3.42 | active
Rps4x (ribosomal protein S4, X-linked) | 3 | 0.0864 | 3.63 | -0.782 | 0.955 | inactive
Rps4x (ribosomal protein S4, X-linked) | 4 | 0.138 | -0.924 | 1.61 | -1.34 | inactive
Rps4x (ribosomal protein S4, X-linked) | 5 | -1.23 | -0.924 | -0.509 | -1.94 | inactive
Rps4x (ribosomal protein S4, X-linked) | 6 | -1.07 | -0.924 | 0.335 | -2.48 | inactive
Spp2 (secreted phosphoprotein 2) | 1 | -0.303 | -3.13 | -0.67 | 0.0641 | inactive
Spp2 (secreted phosphoprotein 2) | 2 | -3.13 | -3.13 | -3.45 | -2.8 | active
Spp2 (secreted phosphoprotein 2) | 3 | -4.86 | -3.13 | -4.65 | -5.07 | active
Ppm1l (protein phosphatase 1 (formerly 2C)-like) | 1 | -2.95 | -3.48 | -3.15 | -2.76 | active
Ppm1l (protein phosphatase 1 (formerly 2C)-like) | 2 | -3.38 | -3.48 | -3.8 | -2.95 | active
Ppm1l (protein phosphatase 1 (formerly 2C)-like) | 3 | -5.26 | -3.48 | -4.73 | -5.78 | active
Ppm1l (protein phosphatase 1 (formerly 2C)-like) | 4 | 1.87 | 1.55 | 2.71 | 1.03 | inactive
Ppm1l (protein phosphatase 1 (formerly 2C)-like) | 5 | 1.12 | 1.55 | 2.07 | 0.176 | inactive
Ppm1l (protein phosphatase 1 (formerly 2C)-like) | 6 | 0.793 | 1.55 | 2.51 | -0.919 | inactive
